Results reported in the supplement of paper PMC6078165.

System: BT20
Assay: relative JC-1 red fluorescence (viability) vs pre-drug, coculture with fibroblast (fraction); higher = more viable cancer cells
Description: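 JC-1 labelled TNBC cells cocultured 1:1 (1,500 cells each) with CellTrace Violet stained primary or stromal fibroblasts in 384-well plates in FluoroBrite medium, treated with one of 42 anticancer drugs at 0.1, 1, 10 or 100 uM. JC-1 red fluorescence (mitochondrial integrity in cancer cells only) was read by plate reader every 8 h for 72 h. Values are normalised to each well's pre-drug value. The stock of one drug was tenfold lower, so its dose labels may be too high.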

CCc1c2c(nc3ccc(OC(=O)N4CCC(N5CCCCC5)CC4)cc13)-c1cc3c(c(=O)n1C2)COC(=O)[C@]3(O)CC [Irinotecan]
relative JC-1 red fluorescence
Conditions | 8 h | 16 h | 24 h | 32 h | 40 h | 48 h | 56 h | 64 h | 72 h
0.1 µM, coculture fibroblast: C12385 | 0.916 ± 0.036 | 0.865 ± 0.011 | 0.8819 ± 0.0032 | 0.8188 ± 0.0062 | 0.77 ± 0.014 | 0.751 ± 0.032 | 0.736 ± 0.025 | 0.723 ± 0.03 | 0.716 ± 0.034
0.1 µM, coculture fibroblast: H6013 | 0.925 ± 0.031 | 0.872 ± 0.011 | 0.85793 ± 0.00062 | 0.8104 ± 0.0049 | 0.7741 ± 0.0068 | 0.76 ± 0.014 | 0.755 ± 0.016 | 0.725 ± 0.021 | 0.704 ± 0.02
0.1 µM, coculture fibroblast: H6019 | 0.829 ± 0.03 | 0.795 ± 0.038 | 0.799 ± 0.043 | 0.737 ± 0.045 | 0.695 ± 0.044 | 0.679 ± 0.04 | 0.654 ± 0.046 | 0.625 ± 0.041 | 0.611 ± 0.036
0.1 µM, coculture fibroblast: H6076 | 0.93 ± 0.044 | 0.9076 ± 0.0012 | 0.862 ± 0.034 | 0.853 ± 0.056 | 0.846 ± 0.065 | 0.838 ± 0.078 | 0.849 ± 0.073 | 0.859 ± 0.091 | 0.855 ± 0.1
0.1 µM, coculture fibroblast: H6231 | 0.913 ± 0.088 | 0.8856 ± 0.0088 | 0.77 ± 0.011 | 0.716 ± 0.027 | 0.667 ± 0.023 | 0.623 ± 0.024 | 0.588 ± 0.034 | 0.569 ± 0.036 | 0.538 ± 0.035
0.1 µM, coculture fibroblast: HADF | 0.925 ± 0.085 | 0.89 ± 0.0075 | 0.834 ± 0.018 | 0.795 ± 0.0093 | 0.746 ± 0.016 | 0.705 ± 0.018 | 0.681 ± 0.03 | 0.66 ± 0.031 | 0.628 ± 0.034
0.1 µM, coculture fibroblast: HCFa | 0.9116 ± 0.0044 | 0.8919 ± 0.0044 | 0.881 ± 0.024 | 0.817 ± 0.024 | 0.776 ± 0.039 | 0.731 ± 0.045 | 0.703 ± 0.039 | 0.68 ± 0.052 | 0.639 ± 0.05
0.1 µM, coculture fibroblast: HCPF | 0.935 ± 0.03 | 0.836 ± 0.044 | 0.807 ± 0.011 | 0.7755 ± 0.0066 | 0.7509 ± 0.0035 | 0.7248 ± 0.0041 | 0.69625 ± 0.00031 | 0.7013 ± 0.0023 | 0.671 ± 0.01
0.1 µM, coculture fibroblast: HHSteC | 0.91 ± 0.049 | 0.881 ± 0.055 | 0.876 ± 0.082 | 0.798 ± 0.092 | 0.77 ± 0.1 | 0.726 ± 0.12 | 0.701 ± 0.12 | 0.676 ± 0.12 | 0.644 ± 0.12
0.1 µM, coculture fibroblast: HMF | 0.9321 ± 0.008 | 0.852 ± 0.015 | 0.78 ± 0.023 | 0.732 ± 0.017 | 0.696 ± 0.015 | 0.661 ± 0.028 | 0.64 ± 0.025 | 0.616 ± 0.017 | 0.594 ± 0.018
0.1 µM, coculture fibroblast: HPFa | 0.93155 ± 0.00092 | 0.841 ± 0.016 | 0.81971 ± 0.00068 | 0.7147 ± 0.0067 | 0.6746 ± 0.0041 | 0.6173 ± 0.0044 | 0.584 ± 0.0092 | 0.547 ± 0.015 | 0.488 ± 0.019
0.1 µM, coculture fibroblast: HUF | 0.908 ± 0.02 | 0.8141 ± 0.0075 | 0.7769 ± 0.0069 | 0.698 ± 0.0087 | 0.6462 ± 0.0045 | 0.6064 ± 0.002 | 0.58 ± 0.0083 | 0.565 ± 0.011 | 0.55793 ± 0.0005
0.1 µM, coculture fibroblast: Hs5 | 0.926 ± 0.05 | 0.883 ± 0.018 | 0.874 ± 0.04 | 0.867 ± 0.081 | 0.867 ± 0.11 | 0.85 ± 0.13 | 0.833 ± 0.11 | 0.803 ± 0.12 | 0.781 ± 0.12
0.1 µM, coculture fibroblast: Hs27A | 0.901 ± 0.021 | 0.87 ± 0.091 | 0.8933 ± 0.0027 | 0.875 ± 0.027 | 0.818 ± 0.0089 | 0.787 ± 0.028 | 0.772 ± 0.017 | 0.746 ± 0.018 | 0.7004 ± 0.0067
0.1 µM, coculture fibroblast: Hs343T | 0.931 ± 0.034 | 0.851 ± 0.0096 | 0.7716 ± 0.0016 | 0.7277 ± 0.0024 | 0.689 ± 0.016 | 0.652 ± 0.022 | 0.616 ± 0.025 | 0.609 ± 0.034 | 0.587 ± 0.031
0.1 µM, coculture fibroblast: WS1 | 0.825 ± 0.023 | 0.772 ± 0.016 | 0.812 ± 0.023 | 0.7575 ± 0.002 | 0.7117 ± 0.0038 | 0.712 ± 0.0099 | 0.7049 ± 0.0067 | 0.703 ± 0.016 | 0.707 ± 0.014
1 µM, coculture fibroblast: C12385 | 0.873 ± 0.043 | 0.8336 ± 0.0015 | 0.844 ± 0.014 | 0.792 ± 0.021 | 0.746 ± 0.024 | 0.724 ± 0.021 | 0.706 ± 0.015 | 0.704 ± 0.014 | 0.6948 ± 0.0064
1 µM, coculture fibroblast: H6013 | 0.911 ± 0.02 | 0.8637 ± 0.0055 | 0.8513 ± 0.0049 | 0.779 ± 0.0082 | 0.7386 ± 0.005 | 0.7262 ± 0.0054 | 0.722 ± 0.0097 | 0.7088 ± 0.0059 | 0.6921 ± 0.0059
1 µM, coculture fibroblast: H6019 | 0.857 ± 0.0084 | 0.811 ± 0.0049 | 0.8094 ± 0.0078 | 0.743 ± 0.019 | 0.71 ± 0.027 | 0.694 ± 0.021 | 0.663 ± 0.03 | 0.639 ± 0.03 | 0.62 ± 0.038
1 µM, coculture fibroblast: H6076 | 0.951 ± 0.032 | 0.887 ± 0.021 | 0.826 ± 0.012 | 0.793 ± 0.011 | 0.786 ± 0.01 | 0.764 ± 0.018 | 0.777 ± 0.024 | 0.776 ± 0.027 | 0.763 ± 0.03
1 µM, coculture fibroblast: H6231 | 0.896 ± 0.1 | 0.856 ± 0.049 | 0.782 ± 0.015 | 0.726 ± 0.0094 | 0.6983 ± 0.0055 | 0.6551 ± 0.0057 | 0.62 ± 0.017 | 0.597 ± 0.027 | 0.573 ± 0.041
1 µM, coculture fibroblast: HADF | 0.9299 ± 0.0015 | 0.8971 ± 0.0027 | 0.876 ± 0.015 | 0.81 ± 0.018 | 0.777 ± 0.024 | 0.749 ± 0.026 | 0.732 ± 0.033 | 0.719 ± 0.028 | 0.698 ± 0.041
1 µM, coculture fibroblast: HCFa | 0.938 ± 0.017 | 0.906 ± 0.052 | 0.888 ± 0.039 | 0.809 ± 0.039 | 0.768 ± 0.035 | 0.734 ± 0.028 | 0.71 ± 0.022 | 0.687 ± 0.017 | 0.647 ± 0.019
1 µM, coculture fibroblast: HCPF | 0.9654 ± 0.0036 | 0.913 ± 0.012 | 0.851 ± 0.021 | 0.8062 ± 0.0075 | 0.773 ± 0.0088 | 0.75 ± 0.013 | 0.729 ± 0.028 | 0.708 ± 0.017 | 0.684 ± 0.016
1 µM, coculture fibroblast: HHSteC | 0.91 ± 0.015 | 0.881 ± 0.016 | 0.877 ± 0.016 | 0.799 ± 0.018 | 0.763 ± 0.024 | 0.73 ± 0.017 | 0.707 ± 0.026 | 0.683 ± 0.021 | 0.648 ± 0.017
1 µM, coculture fibroblast: HMF | 0.773 ± 0.1 | 0.899 ± 0.028 | 0.785 ± 0.05 | 0.71 ± 0.044 | 0.656 ± 0.027 | 0.62 ± 0.038 | 0.58 ± 0.037 | 0.554 ± 0.039 | 0.529 ± 0.048
1 µM, coculture fibroblast: HPFa | 0.909 ± 0.011 | 0.902 ± 0.063 | 0.924 ± 0.11 | 0.833 ± 0.11 | 0.817 ± 0.14 | 0.772 ± 0.13 | 0.757 ± 0.14 | 0.734 ± 0.16 | 0.681 ± 0.15
1 µM, coculture fibroblast: HUF | 0.89 ± 0.013 | 0.78689 ± 0.00043 | 0.7483 ± 0.0054 | 0.65431 ± 0.00013 | 0.60143 ± 3.4e-05 | 0.565 ± 0.0057 | 0.55 ± 0.0091 | 0.54 ± 0.017 | 0.529 ± 0.016
1 µM, coculture fibroblast: Hs5 | 0.841 ± 0.17 | 0.91 ± 0.017 | 0.8374 ± 0.0012 | 0.7782 ± 0.0066 | 0.743 ± 0.009 | 0.7 ± 0.031 | 0.67 ± 0.044 | 0.641 ± 0.054 | 0.597 ± 0.061
1 µM, coculture fibroblast: Hs27A | 0.85 ± 0.17 | 0.945 ± 0.032 | 0.903 ± 0.018 | 0.846 ± 0.0094 | 0.812 ± 0.015 | 0.806 ± 0.027 | 0.788 ± 0.032 | 0.77 ± 0.052 | 0.724 ± 0.055
1 µM, coculture fibroblast: Hs343T | 0.964 ± 0.024 | 0.8534 ± 0.0074 | 0.768 ± 0.0053 | 0.705 ± 0.0078 | 0.655 ± 0.026 | 0.612 ± 0.028 | 0.576 ± 0.045 | 0.558 ± 0.046 | 0.533 ± 0.051
1 µM, coculture fibroblast: WS1 | 0.821 ± 0.013 | 0.757 ± 0.036 | 0.708 ± 0.069 | 0.629 ± 0.059 | 0.567 ± 0.056 | 0.543 ± 0.054 | 0.512 ± 0.066 | 0.484 ± 0.065 | 0.473 ± 0.08

± gives the standard deviation of the averaged measurements. The reference is the same well before dosing, and untreated signal decays as well.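 Labels refer to human fibroblasts, largely primary: uterine (C12385, HUF), lung (H6013), bone (Hs27A), adrenal (HADF), skin (WS1), plus mammary HMF and breast cancer-associated Hs343T. Cancer lines are basal-like or mesenchymal-like triple-negative breast cancer. The paper counts as hits responses shifting over 3x the replicate standard deviation. The tissue of the other fibroblasts is not given here.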
